The record followed here is publication PMC3445557.

These are yes or no findings as the source states them, for the method shown. Binding seen in cells or lysates may run through a third protein. Binding can be weak; no strength is given.

Experiment [1] concerns the target T1, LAT (human (endogenous in Jurkat)) (UniProt O43561).
T1 sequence: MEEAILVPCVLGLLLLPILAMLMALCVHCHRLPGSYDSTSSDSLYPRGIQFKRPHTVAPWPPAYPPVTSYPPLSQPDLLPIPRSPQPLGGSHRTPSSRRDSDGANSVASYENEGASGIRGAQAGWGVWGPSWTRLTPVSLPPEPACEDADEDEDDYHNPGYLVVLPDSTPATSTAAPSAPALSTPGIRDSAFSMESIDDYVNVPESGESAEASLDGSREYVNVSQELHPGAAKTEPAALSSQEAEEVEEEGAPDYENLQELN
In words: co-IP; Jurkat cells transfected with CFP/YFP chimeric ITK constructs, stimulated with anti-CD3ε or isotype control antibodies, lysed; lysates immunoprecipitated with anti-SLP-76 or anti-LAT antibodies; immunoblotted with anti-ITK.

For experiment [2], the target named is T2, SLP-76 (human (endogenous in Jurkat)) (UniProt Q13094).
T2 sequence: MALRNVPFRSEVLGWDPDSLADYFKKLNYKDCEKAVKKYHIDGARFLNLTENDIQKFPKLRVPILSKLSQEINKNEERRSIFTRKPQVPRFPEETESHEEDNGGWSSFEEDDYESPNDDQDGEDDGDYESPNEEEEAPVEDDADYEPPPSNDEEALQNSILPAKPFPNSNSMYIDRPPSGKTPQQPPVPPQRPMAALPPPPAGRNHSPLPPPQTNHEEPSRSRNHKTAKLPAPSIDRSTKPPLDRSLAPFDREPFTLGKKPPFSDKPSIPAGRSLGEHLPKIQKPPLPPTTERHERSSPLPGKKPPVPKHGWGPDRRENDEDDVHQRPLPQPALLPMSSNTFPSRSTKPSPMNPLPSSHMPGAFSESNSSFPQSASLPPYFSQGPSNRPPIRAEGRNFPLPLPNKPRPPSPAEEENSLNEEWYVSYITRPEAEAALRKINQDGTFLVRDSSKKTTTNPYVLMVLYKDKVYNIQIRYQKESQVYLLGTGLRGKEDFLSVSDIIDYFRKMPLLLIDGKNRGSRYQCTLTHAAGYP
The experiment is described as above.

“F26S-ITK, CFP/YFP chimeric construct (enzyme)”: the binding entry in experiment [1] and in experiment [2] was “binds” throughout.
